Results deposited as PubChem BioAssay AID652259 (Drosophila RNAi Screening Center, 2013)
The screen tested about 22,000 reagents; this is a random part of those with a known target gene and a result. In the full data, 233 (1.1%) were called active. 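Light values are raw, unnormalised plate reads; the ratio scores behind the reporter calls were not deposited.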 Unmarked entries are inactive. Reagents against one gene are numbered here. A plus sign joins genes that one reagent is predicted to hit. No sequences are given here. Not given: the amount of reagent, the time to read-out, the dose of the treatment.

Assay: 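Knock-downs that push a Wingless-driven reporter up or down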 (primary screen)
Cell system: Drosophila clone 8 imaginal disc epithelial cells
Reagent: long dsRNA against Drosophila genes
Challenge: pathway stimulated by co-transfected Wingless expression plasmid
Measurement: 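Dual luciferase reads per well after Wingless plasmid stimulation: reporter firefly light and Renilla control light; activity is firefly divided by Renilla, a ratio not deposited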
Reading the numbers: firefly reporter light: higher = more Wg reporter light, before normalisation; Renilla control light: higher = more transfected or surviving cells
Call rule: 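a knock-down is a candidate when at least two out of four statistical tests show it departing from its plate mean; one test alone signals a weak candidate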
Calls: active = candidate regulator (raises or lowers reporter); inactive = not a candidate

target,dsRNA no.,"firefly reporter light, replicate 1","firefly reporter light, replicate 2","Renilla control light, replicate 1","Renilla control light, replicate 2"
CG31088,1,3285,,1253,
bgcn (benign gonial cell neoplasm),1,1911,7075,696,2582
bgcn (benign gonial cell neoplasm),2,2368,7329,645,2077
CG8939,1,1667,5793,770,2138
CG6428,1,18193,,6723,
mr (morula),1,17170,,6419,
mr (morula),2,6.62e5,7.80e5,2.15e5,2.98e5
CG12817 + CG12420,1,4.58e5,4.48e5,2.16e5,2.64e5
Tango10 (Transport and Golgi organization 10),1,4373,10390,1728,4534
UQCR-C2 (Ubiquinol-cytochrome c reductase core protein 2),1,9072,,2977,
DnaJ-1 (DnaJ-like-1),1,3187,,880,
CG8664,1,18692,,8738,
RhoGAP92B (Rho GTPase activating protein at 92B),1,16509,,3619,
RhoGAP92B (Rho GTPase activating protein at 92B),2,11597,,2757,
CG6937 + btn,1,12130,,7347,
CG1161,1,14861,,1856,
reb (rebuf),1,4732,,2186,
Lamtor2 + CG30120,1,15821,,11996,
Lamtor2 + CG30120,2,7837,,2852,
CG13577,1,1805,7618,486,2448
ogre (optic ganglion reduced),1,2637,8995,865,2199
SREBP (Sterol regulatory element binding protein),1,5696,,1762,
CG14427,1,14755,,13016,
CG31650,1,9101,7.30e5,4064,3.59e5
Adi1 (Acireductone dioxygenase 1),1,8923,,3544,
Adi1 (Acireductone dioxygenase 1),2,4.99e5,5.32e5,2.25e5,1.87e5
Or82a (Odorant receptor 82a),1,3782,,1497,
CG13965,1,3285,5690,688,2476
spartin,1,24284,,7703,
mRpL14 (mitochondrial ribosomal protein L14),1,13600,,10838,
Prosap,1,6785,,2035,
Prosap,2,12717,,3084,
CG30430,1,5.62e5,5.22e5,2.15e5,2.13e5
CG8252,1,6390,,2145,
CG34304 (retired record),1,3609,,1572,
Oli (Olig family),1,9793,,2928,
St1 (Sulfotransferase 1),1,20080,,3667,
Cbp80 (cap binding protein 80),1,2678,8531,1154,1720
CG16753,1,7440,,1035,
pio (piopio),1,12224,,3403,
Ubc87F (Ubiquitin conjugating enzyme 87F),1,16187,,4320,
CG13743,1,19557,,12788,
CG13743,2,4109,12338,480,1669
CG13743,3,6.89e5,6.22e5,2.02e5,74478
Blm (Bloom syndrome helicase),1,6877,,3491,
CG30414,1,2859,7591,660,3330
Ing5 (Inhibitor of growth family member 5),1,16468,,3984,
CG13216,1,4651,,2392,
Mer (Merlin),1,3168,9520,889,2312

Quoted from the entries so far, 8 entries:
target,dsRNA no.,"firefly reporter light, replicate 1","firefly reporter light, replicate 2","Renilla control light, replicate 1","Renilla control light, replicate 2"
Lamtor2 + CG30120,1,15821,,11996,
Lamtor2 + CG30120,2,7837,,2852,
CG13577,1,1805,7618,486,2448
ogre (optic ganglion reduced),1,2637,8995,865,2199
SREBP (Sterol regulatory element binding protein),1,5696,,1762,
CG14427,1,14755,,13016,
CG31650,1,9101,7.30e5,4064,3.59e5
Adi1 (Acireductone dioxygenase 1),1,8923,,3544,
